Among the data in PMC5289615 are binding values, retold here.

Sequences of proteins named here, by UniProt entry; tags and fusion partners are left off.
UniProt Q27497: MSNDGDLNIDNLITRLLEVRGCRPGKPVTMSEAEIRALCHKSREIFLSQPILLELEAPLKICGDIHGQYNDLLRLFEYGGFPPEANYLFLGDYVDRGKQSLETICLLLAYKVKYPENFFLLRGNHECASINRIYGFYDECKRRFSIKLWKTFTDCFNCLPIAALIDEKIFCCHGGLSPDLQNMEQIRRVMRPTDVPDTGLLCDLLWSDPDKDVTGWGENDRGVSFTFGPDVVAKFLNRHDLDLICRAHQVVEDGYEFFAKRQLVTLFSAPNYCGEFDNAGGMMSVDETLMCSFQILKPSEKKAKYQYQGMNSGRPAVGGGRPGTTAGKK

Experiment [1] has as its target PP1β^GSP-1 (C. elegans PP1 catalytic subunit, PP1β homolog) (C. elegans (endogenous in N2 worms)) (UniProt Q27497). Briefly: co-IP; endogenous proteins immunoprecipitated from N2 whole worm extracts (1.6 mg total protein) with 10 ug antibody on Dynabeads Protein A, 4°C; washed in worm lysis buffer (50 mM HEPES pH 7.4, 1 mM EGTA, 1 mM MgCl2, 100 mM KCl, 10% glycerol, 0.05% NP-40); western blot; control IgG. A general note: Immunoblotting shows a protein as a band on a membrane.

Experiment [2] deals with T1, SDS-22 (C. elegans leucine-rich repeat PP1 regulator) (C. elegans (endogenous in N2 worms)) (UniProt P45969).
T1 sequence: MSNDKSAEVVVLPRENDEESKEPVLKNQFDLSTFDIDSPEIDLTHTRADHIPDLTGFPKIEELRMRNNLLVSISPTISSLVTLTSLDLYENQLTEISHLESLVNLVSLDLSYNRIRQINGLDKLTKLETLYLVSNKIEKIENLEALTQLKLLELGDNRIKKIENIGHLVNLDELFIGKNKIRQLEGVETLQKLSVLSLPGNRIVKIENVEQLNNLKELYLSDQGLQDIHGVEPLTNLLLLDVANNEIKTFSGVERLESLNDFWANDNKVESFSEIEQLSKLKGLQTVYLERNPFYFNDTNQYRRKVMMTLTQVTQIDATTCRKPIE
Described as above.

These are yes or no findings as the source states them, for the method shown. Binding seen in cells or lysates may run through a third protein. Some binding calls cover weakened binding; strength is not graded here.

B1: ZYG-1 (C. elegans homolog of Plk4) (enzyme, UniProt Q9GT24 1-706)
chain: MSGGKSGSRLSAYSHLKEIGKGGFGVVYAAQRENGEKVAIKRIDKKVPKNRVWTEIQTMKELKKSKYVVEFYEDFVEDGYTYIVMELCEGGSLQAYVREHGALDDATAVHVLRQLISAVSFMHRVNVIHRDLSAGNVFIKDSKKKKMTVKLGDFGLATTLGRGETTCTIVGTPGFIAPQVYDQEYTQSADVYSLGAVLYTMLTARNPPPKGLPPTCGMSPNAARLVEQMMDTDAKKRIPLTQIVLSEFMYENTNENAVIFSREHSRDGRRQRSREPVRSSRDDRSRDGRALIRSSSQPAHSGRAPLSNRPIHDRMPSTSSRGFDSERGRERDRDSGRGTVPPSREDRNRSQLWPIRMDRLEGQRVCTAGGRYIVELDTRCRFEVAAQGNFVKRILIVEVDEMVQTVYVHRIPDRTVRGRNGEEELITLTNNPFVYTSYSQMPKEVQNDYMRLQKMVAVTISGRVAKVTFRRPSQFPDAQAQLMENGDLRIKLPRSVIVRKMDNGEIFNCIDGIATQKQAVSGITLTKVNEVYKYLIRFEQCLNGMDRGMVCFPIVFSAGTNMVGSSPSSLMPSGSSQTSRFPFSNLSNNQPSLVPHSAPFLTKPTSSQRASSANVQRRVSTDENSSPSVAPSKYKIKIDPTTQKVRSIQATDGRVLRCSTSKADQFIFTDPAIRPDDQRFMRTDRVPDRASEMLHTLCERMRKLHQ
For B1, the binding entry in experiment [1] and in experiment [2] was “no binding” in each case.

B2: SDS-22 (C. elegans leucine-rich repeat PP1 regulator) (protein, UniProt P45969 1-326)
chain: MSNDKSAEVVVLPRENDEESKEPVLKNQFDLSTFDIDSPEIDLTHTRADHIPDLTGFPKIEELRMRNNLLVSISPTISSLVTLTSLDLYENQLTEISHLESLVNLVSLDLSYNRIRQINGLDKLTKLETLYLVSNKIEKIENLEALTQLKLLELGDNRIKKIENIGHLVNLDELFIGKNKIRQLEGVETLQKLSVLSLPGNRIVKIENVEQLNNLKELYLSDQGLQDIHGVEPLTNLLLLDVANNEIKTFSGVERLESLNDFWANDNKVESFSEIEQLSKLKGLQTVYLERNPFYFNDTNQYRRKVMMTLTQVTQIDATTCRKPIE
Turning to B2, in experiment [1], the binding result is listed as “binds”.
